Measured values published in PubChem BioAssay AID1347075 (National Center for Advancing Translational Sciences (NCATS), 2019).
The campaign covered roughly 400,000 compounds. About 5,500 (1.4%) were called active. Inconclusive means that the source gave no clear call. Such entries were picked first, then a sample of the others. The call rests on the fitted dose curve; in most records, active means well fitted cell-killing curve with a large enough effect; inconclusive means small, poorly fitted or top-dose-only effect, or effect the other way; inactive means flat fitted curve, though single readings scatter. A potency beside an inconclusive call is a rough fit, not a confirmed value.

Experiment: qHTS assay for MDR1-selective chemotherapeutics: Primary screen using the parental adenocarcinoma cell KB-3-1; further: nearly all actives have a fitted effect of over 60% in size
Settings: KB-3-1 viability, CellTiter-Glo ATP luminescence, 72 h; activity change, negative = cytotoxic: at 46.1 µM (top of the series)
Summary of the method: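 Cytotoxicity measured as CellTiter-Glo luminescence after 72 h at 37 C. Compound titrations were pinned onto drug-naive KB-3-1 parental adenocarcinoma cells grown in DMEM with 10% FBS, and normalized data fitted to concentration-response curves.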
On the % scale 0 is the no-effect control and ±100 the full control effect; potency means the concentration at half of the fitted maximal effect.

Structure (SMILES) | Potency | activity change, negative = cytotoxic
C[C@H]1CN=C(N(C)C)N1CCc1ccc(F)cc1 | inconclusive: 29.1 µM [rising, single point] | –
CC[C@]12c3[nH]c4cc(-c5ccco5)ccc4c3CCN1C(=O)[C@@H](CC(=O)NCc1cccc(C(F)(F)F)c1)C[C@@H]2C(=O)N1CCN(C(=O)C2CC2)CC1 | inconclusive: 29.1 µM [cytotoxic, single point] | –
O=c1[nH]c(-c2ccccc2)nc2sc(-c3ccccc3)cc12 | inconclusive: 6.51 µM [cytotoxic, full curve] | –
Brc1cc2ccccc2[n+](Cc2ccccc2)c1 | inconclusive: 20.6 µM [cytotoxic, single point] | –
CC(C)C(=O)NC(=S)Nc1ccc(S(=O)(=O)N(C)Cc2ccccc2)cc1 | inconclusive: 29.1 µM [cytotoxic, single point] | –
Cc1ccc(-c2noc(CCC(=O)NCCN3CCN(Cc4ccccc4)CC3)n2)cc1 | inconclusive: 16.4 µM [cytotoxic, partial curve] | –
COc1ccc(/C=C2/CCCc3ccccc3C2=O)cc1 | active: 0.651 µM | –
Cc1cc(C)c2c(n1)SCCN2C(=O)Nc1ccc(C(=O)Nc2cc(Cl)ccc2C)cc1 | inconclusive: 0.0052 µM [rising, full curve] | –
O=C(Nc1ccc(F)cc1)c1nn(-c2ccccc2)c(=O)cc1Cl | active: 4.61 µM | –
CCc1nc(Nc2ccncc2)c2oc3ccccc3c2n1 | active: 8.2 µM | –
COc1ccc(NC(=O)C2=CC(c3ccc(OC)c(OC)c3)=NS(=O)(=O)N2C)cc1 | inconclusive: 29.1 µM [cytotoxic, single point] | –
O=C1C2C(C(=O)N1/N=C/c1ccc(N3CCCCC3)o1)C1C=CC2C12CC2 (stereo unspecified) | inconclusive: 29.1 µM [rising, single point] | –
C=CCNC(=O)C1CCN(c2cnccn2)CC1 | inactive | –
CCOC(=O)C1(Cc2cccc(OC)c2)CCCN(C(=O)CSC)C1 (stereo unspecified) | inactive | –
CCCCCCSc1ccc([C@H]2N[C@@](CC(C)C)(C(=O)OC)[C@H]3C(=O)N(C)C(=O)[C@@H]23)cc1 | inconclusive: 29.1 µM [cytotoxic, single point] | –
CC1CCN(C(=O)CSc2ccc(-c3ccc(F)cc3)nn2)CC1 | – | inconclusive: -1.54%
COc1ccc(-n2c(C)cc(C(=O)CN3CCCCC3)c2C)cc1 | inactive | –
Nc1ncccc1OCc1cccc(C(F)(F)F)c1 | inconclusive: 29.1 µM [cytotoxic, single point] | –
N#C/C(=C(/O)c1ccc([N+](=O)[O-])o1)c1nc2ccccc2[nH]1 | inconclusive: 3.66 µM [cytotoxic, partial curve, poor fit] | –
Cc1ccc(C(=O)c2cc([N+](=O)[O-])ccc2N2CCCCC2)c(C)c1 | active: 0.82 µM | –
COc1ccc(C)cc1NC(=O)C(=O)NCC1(c2ccccc2)CCCC1 | inactive | –
CCCCn1c(Nc2ccccc2)nc2ccccc21 | inactive | –
Cc1nn(CC#N)c(=O)n1-c1cccc(F)c1 | inactive | –
CCCC(c1nnnn1Cc1ccco1)N1CCN(c2cc(Cl)ccc2C)CC1 (stereo unspecified) | inconclusive: 35.5 µM [cytotoxic, single point] | –

One compound at a time, as listed above.
Brc1cc2ccccc2[n+](Cc2ccccc2)c1 in the list: Potency: inconclusive: 20.6 µM [cytotoxic, single point]
Cc1nn(CC#N)c(=O)n1-c1cccc(F)c1 in the list: Potency: inactive
CCc1nc(Nc2ccncc2)c2oc3ccccc3c2n1 in the list: Potency: active: 8.2 µM

(next part)

Structure (SMILES) | Potency | activity change, negative = cytotoxic
C[C@H]1CN([C@@H](C)CO)C(=O)CCCn2nncc2CO[C@H]1CN(C)C(=O)C1CC1 | inactive | –
CCn1cc(CNC(=O)CCSc2nc(-c3ccco3)cc(C(F)(F)F)n2)cn1 | inconclusive: 29.1 µM [cytotoxic, single point] | –
Cc1cccn2c(=O)c3cc(C(=O)NCCc4ccccc4)c(=N)n(CCCn4ccnc4)c3nc12 | inconclusive: 23.1 µM [cytotoxic, partial curve, poor fit] | –
COc1cccc(/C=C/C(=O)c2ccc(NC3=NCCCS3)cc2)c1 | inconclusive: 20.6 µM [cytotoxic, single point] | –
O=C(CC(=O)c1ccccc1O)c1cccc(F)c1 | inconclusive: 16.4 µM [cytotoxic, single point] | –
Cc1ccnc(N2C(=O)c3cccc4c([N+](=O)[O-])ccc(c34)C2=O)c1 | inactive | –
Cn1cccc1/C=C1\SC(=Nc2ccccc2)NC1=O | active: 2.31 µM | –
O=C(CN1C(=O)C2CCCCC2C1=O)Nc1nc(-c2ccccn2)cs1 (stereo unspecified) | inconclusive: 29.1 µM [cytotoxic, single point] | –
Cc1cccc(OCC(=O)Nc2ccc(-c3nc4cc(C)ccc4o3)c(O)c2)c1 | inactive | –
Cc1cccc(C(=O)NC2CC3CCCC(C2)N3Cc2ccccc2)c1 (stereo unspecified) | inactive | –
COc1cc2c(cc1OC)CN(C(=O)CCC(=O)c1ccc(F)cc1)CC2 | active: 16.4 µM | –
COc1ccc(S(=O)(=O)N(CC(=O)N(C)Cc2ccccc2)c2ccc(Cl)cc2)cc1 | inactive | –
O=C1C=C(Nc2cccnc2)c2ccccc2C1=O | active: 8.2 µM | –
Cc1cc(-c2n[nH]c(=S)n2/N=C/C=C/c2ccco2)n[nH]1 | inactive | –
CCOC(=O)CNC(=O)Cn1cnc2c(cnn2-c2ccc(C)cc2)c1=O | inactive | –
Cc1ccc(-n2nc(C)c(C(=O)O)n2)c(C)c1 | inconclusive: 1.64 µM [rising, partial curve, poor fit] | –
O=C(C[C@@H]1C/C=C\CCCC(=O)OC[C@@H]2CCCN2C1=O)N[C@H](CO)Cc1ccccc1 | inactive | –
CC(C)c1ccc(NC(=O)COc2ccc(F)cc2C(=O)c2cnn(-c3ccccc3)c2)cc1 | inconclusive: 29.1 µM [cytotoxic, single point] | –
c1ccc2c(c1)OCc1cn[nH]c1-2 | inactive | –
CCc1ccc(NC(=O)CSc2nc3ccccc3nc2Cc2ccccc2OC)cc1 | – | inconclusive: -31.7%
CC(C)(C)c1ccc(C(=O)NC(Cc2c[nH]c3ccccc23)C(=O)OCC(=O)c2ccccc2)cc1 (stereo unspecified) | inactive | –
O=C1NC(c2ccc3ccccc3c2)Nc2ccccc21 (stereo unspecified) | inconclusive: 20.6 µM [cytotoxic, single point] | –
COc1ccc(C(=O)Nc2nc3ccccc3[nH]2)cc1 | inconclusive: 14.6 µM [cytotoxic, single point] | –
O=C(NC1CCCCC1)c1c[nH]c2ccc(S(=O)(=O)Nc3ccccc3F)cc2c1=O | – | inconclusive: -31.8% [cytotoxic]

Structure (SMILES) | Potency | activity change, negative = cytotoxic
COc1cc(C)c(NC(=O)c2cc(C3CC3)nc3c2cnn3C(C)C)cc1OC | inconclusive: 29.1 µM [cytotoxic, single point] | –
COc1cc(/C=c2\sc3n(c2=O)C(c2ccccc2)C(c2ccccc2)=NN=3)ccc1O (stereo unspecified) | inactive | –
C/C(CC(=O)Nc1ccc([N+](=O)[O-])cc1)=N\NC(=O)c1ccccc1[N+](=O)[O-] | inconclusive: 13 µM [rising, partial curve, poor fit] | –
COc1ccc(Cn2nnnc2C(C(C)C)N(Cc2ccco2)Cc2cccs2)cc1 (stereo unspecified) | inconclusive: 23.1 µM [cytotoxic, single point] | –
CN(c1ccccc1)S(=O)(=O)c1ccc(C(=O)OCC(=O)NCc2cccs2)cc1 | inconclusive: 20.6 µM [cytotoxic, single point] | –
COc1ccc([C@H]2CC(=O)C=C(c3ccc(CNC(=O)OC(C)(C)C)cc3)C2)cc1 | inconclusive: 29.1 µM [cytotoxic, single point] | –
Cc1ccc2nc3c(c(Nc4ccc5c(c4)OCCO5)c2c1)CCC3 | inconclusive: 32.6 µM [cytotoxic, single point] | –
CC(CS(=O)(=O)c1ccccc1[N+](=O)[O-])N1CCOCC1 (stereo unspecified) | inconclusive: 29.1 µM [cytotoxic, single point] | –
Cn1cc(C(=O)NCc2ccc(Cl)cc2)c(=O)c2cc(S(=O)(=O)N3CCCCCC3)ccc21 | inactive | –
CCCCC(=NCCc1c(C)[nH]c2ccc(OC)cc12)C1=C(O)CC(c2ccccc2)CC1=O (stereo unspecified) | active: 3.66 µM | –
CCOC(=O)C1(Cc2cccc(OC)c2)CCCN(Cc2cc(C(C)C)n[nH]2)C1 (stereo unspecified) | inconclusive: 1.84 µM [rising, full curve] | –
COc1ccc(-c2cn(-c3ccc(OC)cc3)c3[n+]2-c2ccccc2CC3)cc1 | active: 3.66 µM | –
COc1ccc(-c2ccnc3nc(N4CCN(c5ccccc5)CC4)nn23)cc1 | inconclusive: 29.1 µM [cytotoxic, single point] | –
COc1ccc(Sc2cc(C(F)(F)F)nc(-c3ccccn3)n2)cc1 | inactive | –
CCCCNc1nc(Oc2ccc(OCCC)nn2)nc(N(C)C)n1 | inactive | –
CCCC(=O)NC(c1cccs1)c1cc([N+](=O)[O-])c2cccnc2c1O (stereo unspecified) | inconclusive: 3.66 µM [cytotoxic, full curve, poor fit] | –
Cc1cccc(NS(=O)(=O)c2ccc3c(c2)Cc2cc(S(=O)(=O)Nc4cccc(C)c4C)ccc2-3)c1C | inconclusive: 29.1 µM [cytotoxic, single point] | –
Clc1cccc(CNc2nnnn2-c2ccccc2)c1 | inconclusive: 29.1 µM [cytotoxic, single point] | –
COc1ccc(NC(=O)C(C)N2c3cccc4cccc(c34)S2(=O)=O)cc1OC (stereo unspecified) | active: 18.4 µM | –
O=C(CCCc1nc(-c2ccc(Cl)cc2)no1)NC1CCCC1 | inconclusive: 11.6 µM [cytotoxic, partial curve, poor fit] | –
Cc1ccc(NC(=O)c2cccc(Oc3ccc([N+](=O)[O-])cc3)c2)c(C(=O)O)c1 | inconclusive: 0.291 µM [rising, full curve] | –
O=C(NN1C(=O)c2ccccc2NC1c1ccoc1)c1ccc([N+](=O)[O-])cc1 (stereo unspecified) | inconclusive: 29.1 µM [rising, single point] | –
C=CCOc1cccc(C2C(C(=O)c3ccc(C)o3)=C(O)C(=O)N2CCN2CCOCC2)c1 (stereo unspecified) | inconclusive: 32.6 µM [cytotoxic, single point] | –
